These results are taken from PubChem BioAssay AID2685 (National Center for Advancing Translational Sciences (NCATS), 2010).

SMILES strings stand for the structures. Several values for one entry are separate records, joined by “and”; a condition that tells them apart may be missing. Equal values may be shown once. This is one part of the list. These are further read-outs of the screen, such as a control signal, another cell line or another target. No call is given for them. Most of these compounds were active or inconclusive in the main read-out, so they are no random draw. Words in brackets tell the shape of the fitted curve; partial curves, single points and poor fits give uncertain potencies.

This experiment in a line: qHTS Assay for Lipid Storage Modulators in Drosophila S3 Cells.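 For cell number change: cells counted by Cell Tracker Red CMTPX staining in the red channel.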 Conditions: BODIPY lipid droplet fluorescence, 18-24 h; for cell number change: measured here: cell count max response, cells fed with added oleic acid. The gist of the method:
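Drosophila S3 cells loaded with oleic acid (400 uM, as added) and compounds at several concentrations; lipid droplets imaged by 488-nm laser-scanning cytometry, 500–530 nm intensity and object ratio to cell channel. Percent activity normalized to 20 uM Triacsin C.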
In general terms: qHTS replaces the single test concentration by a dilution series.

[1] abbreviates: measured here: lipid fluorescence (Fed channel) AC50, cells fed with added oleic acid.
The mark [2] stands for this setting: measured here: cell number channel AC50, cells fed with added oleic acid.

What is called AC50 is the concentration giving half of the maximal activity seen. Low values mean greater potency, high ones weaker potency. Take `Cc1ccc(N2CCN(C(=O)c3cccc([N+](=O)[O-])c3)CC2)cc1Cl`: the cell number change came out at 28%. Moreover, under setting [1], the AC50 is 35.5 µM [rising, single point].

With `Cc1csc(NC(=O)CSc2nnc(NC(=O)NC(C)(C)C)s2)n1`, the cell number change was -18.7%. Further, the AC50 under setting [1] was 25.9 µM [falling, partial curve, poor fit].

Turning to `Fc1ccc(CSc2nnc(Cc3sc(-c4ccccc4)nc3-c3ccccc3)o2)cc1`, the cell number change worked out at 151%. Also, under setting [2], the AC50 is 14.6 µM [rising, partial curve]. Moreover, under setting [1], the concentration at half-maximal activity (AC50) was 14.6 µM [rising, partial curve].

As for `COc1ccc(OC)c(NC(=O)c2c(NC(=O)c3ccco3)sc3c2CCC3)c1`, the cell number change is -41.1%. Moreover, the AC50 under setting [2] is 25.9 µM [falling, single point]. For the same molecule, under setting [1], the AC50 was 29.1 µM [falling, single point].

`Cc1cc(C(c2ccc(O)cc2)c2cc(C)c(O)cc2C)c(C)cc1O`: the cell number change was determined as 10.9%. In addition, the AC50 under setting [1] was 29.1 µM [rising, single point].

Consider `COc1ccccc1Oc1ncnc2sccc12`, for which the cell number change was -42.3%. In addition, the AC50 under setting [2] was 32.6 µM [falling, single point]. Moreover, the AC50 under setting [1] was 29.1 µM [falling, single point].

Regarding `CCOC(=O)CNC(=O)c1ccc2c(c1)OCCO2`, the cell number change is -20.7%. Also, the half-maximal activity concentration (AC50) under setting [2] was 0.58 µM [falling, partial curve].

Take `O=C(CCCCCNC(=O)N1CCn2c1nc1ccccc12)N[C@H](C(=O)O)c1ccccc1`: the cell number change stood at 25.4%. The half-maximal activity concentration (AC50) under setting [1] is 0.0651 µM [rising, full curve, poor fit].

Take `C=CCn1c(CNc2ccccc2)nnc1SCC(=O)N/N=C/c1ccccc1O`: the cell number change was -15.8%. Moreover, the concentration at half-maximal activity (AC50) under setting [1] is 29.1 µM [falling, single point].

Take `COCCN=C1N[C@@H](c2ccc(Br)cc2)C(C(=O)OC)=C(C)N1Cc1ccccc1`: the cell number change was -19.8% and 15%. For the same molecule, under setting [1], the AC50 is 29.1 µM [falling, single point] and 29.1 µM [rising, single point].

On to `CSCC[C@H](NC(=O)OC(C)(C)C)c1nnc(SCc2cccc(F)c2)o1`, for which the cell number change is -40.4%. Also, the AC50 under setting [2] was 29.1 µM [falling, single point].

Regarding `CC(C)(C)NC(=O)C(c1ccco1)N(C(=O)c1csnn1)c1ccccc1` (stereo not given), the cell number change came out at 13.4%. Moreover, the AC50 under setting [1] is 0.058 µM [falling, full curve, poor fit].

As for `CCOC(=O)c1cc(-c2ccccc2)sc1NC(=O)C(C)N1C(=O)c2ccccc2C1=O` (stereo not given), the cell number change was -14.1%.

Regarding `O=C(C[n+]1cc(-c2ccc(F)cc2)n2c1CCC2)N1c2ccccc2Sc2ccccc21`, the cell number change is 19.2%. Also, the AC50 under setting [1] was 32.6 µM [falling, single point].

Consider `O=c1[nH]cnc2scc(-c3ccc(-c4ccccc4)cc3)c12`, for which the cell number change was found to be 0.59%. Moreover, the AC50 under setting [2] is 0.206 µM [rising, full curve, poor fit].

Take `Cc1ccc(C(=O)N2CCC3(CC2)Oc2ccc(Cl)cc2C(=O)C32CC(c3ccccc3)=NO2)s1` (stereo not given): the cell number change was determined as 11.8%. Also, the AC50 under setting [1] is 11.6 µM [rising, single point].

For the molecule `CN(C[C@H](Cc1ccccc1)N(C[C@H](Cc1ccccc1)N(CC1(c2ccccc2)CC1)N=O)N=O)N=O`, the cell number change stood at 18.9%. The AC50 under setting [1] is 0.731 µM [rising, single point].

`COc1cc(C(C[N+](=O)[O-])c2c(C)cc3ccccn23)ccc1O` (stereo not given): the AC50 under setting [1] was 0.82 µM [falling, full curve].

In the case of `Cc1ccc(N2C(=O)[C@@H]3C(c4ccc(F)cc4)=NO[C@@H]3C2=O)cc1`, the cell number change worked out at 7.37%.

`O=C(O)CSCC(=O)Nc1ccc(S(=O)(=O)N2CCCCC2)cc1`: the cell number change was -31.4%. The AC50 under setting [2] was 4.61 µM [falling, full curve, poor fit]. The AC50 under setting [1] is 23.1 µM [falling, single point].

On to `C/C(NC1CCCCC1)=C(/C#N)C(=O)NCCN1CCOCC1`, for which the cell number change was 1.09%.

For the molecule `O=C(CSc1ncn[nH]1)Nc1cccc2ccccc12`, the cell number change turned out to be 10.5%. Also, the AC50 under setting [2] was 0.366 µM [rising, partial curve, poor fit]. Further, under setting [1], the AC50 was 0.411 µM [rising, single point].

As for `Cc1ccccc1CN(c1ccc(C(=O)N2CCCC2)cc1)S(C)(=O)=O`, the cell number change stood at 71.1%. Moreover, the AC50 under setting [2] is 20.6 µM [rising, single point]. Besides, under setting [1], the AC50 was 18.4 µM [rising, partial curve].

Take `CCOC(=O)c1c(NC(=O)COC(=O)Cn2cnc3ccccc32)sc2c1CCC(C)C2` (stereo not given): the AC50 under setting [1] was 6.51 µM [rising, single point].

As for `CSc1nnc2c(n1)OC(c1cn(C)c3ccccc13)N(C(C)=O)c1ccccc1-2` (stereo not given), the cell number change amounted to 13.9%. Moreover, the AC50 under setting [1] was 23.1 µM [falling, partial curve].

With `Cc1cc(OCC(=O)N[C@@H](Cc2c[nH]c3ccccc23)C(=O)O)c2c(C)c(C)c(=O)oc2c1`, the cell number change was 12.6%. Also, under setting [1], the AC50 is 6.51 µM [rising, partial curve, poor fit].

Regarding `CCn1cc(C2=NOC(C(=O)Nc3cc(OC)c(Cl)cc3OC)C2)c(C)n1` (stereo not given), the cell number change is -19.6%. In addition, the AC50 under setting [1] was 2.59 µM [falling, partial curve].

As to `CC(C)(C)CC(=O)Nc1cc2c3c(c1)CCC(=O)N3CCC2`, the cell number change is -5.97%.

Turning to `CCn1cc([N+](=O)[O-])c(C(=O)NCc2ccc(Cl)cc2)n1`, the cell number change worked out at 18.4%.

`O=C(CC1C(=O)NCCN1Cc1cccc(Oc2ccccc2)c1)NCCCn1cccn1` (stereo not given): the cell number change stood at 27.1%. Further, the AC50 under setting [1] is 32.6 µM [rising, partial curve, poor fit].

In the case of `O=C(c1ccco1)N1CCN(S(=O)(=O)c2cccc(C(F)(F)F)c2)CC1`, the cell number change amounted to 2.78%.

For `CCN1CCN(C(=O)CS(=O)Cc2nc(-c3ccc(OC)cc3)oc2C)CC1` (stereo not given), the cell number change is 1.31%.

For the molecule `COc1cc2[nH]c3ccccc3c2cc1C`, the cell number change is -48.9%. Further, the AC50 under setting [2] is 18.4 µM [falling, single point]. Further, the AC50 under setting [1] was 1.84 µM [falling, partial curve].

As to `CC(NC(=O)c1ccccc1Cl)C(=O)Nc1ccc2c(c1)OCO2` (stereo not given), the cell number change is 43%. Moreover, the AC50 under setting [2] is 13 µM [rising, partial curve].

As to `Cn1c(=O)n(/N=C/c2ccccc2)c2ccccc21`, the cell number change was -5.55%. Moreover, the AC50 under setting [1] was 0.103 µM [falling, full curve, poor fit].

Take `CC1=NN(C(=O)Cn2nc([N+](=O)[O-])cc2C)C(O)(C(F)(F)F)C1` (stereo not given): the cell number change was -60.8%. Also, the AC50 under setting [2] is 16.4 µM [falling, partial curve, poor fit]. The AC50 under setting [1] is 1.84 µM [falling, single point].

On to `CCCOc1ccc2ccccc2c1/C=N/n1c(C)nnc1-n1nc(C)cc1C`, for which the cell number change came to 13.8%.

For the molecule `COc1cc2[nH]c(C(=O)Nc3ccc4c(c3)OCCO4)cc2c(OC)c1OC`, the cell number change was found to be 19.5%.

On to `CCOC(=O)c1sc(S(C)(=O)=O)c2c1CCc1conc1-2`, for which the cell number change was -39.6%. Under setting [1], the AC50 is 18.4 µM [falling, single point].

In the case of `CCOc1cccc2sc(NC(=O)CC)nc12`, the AC50 under setting [1] is 0.291 µM [falling, partial curve, poor fit].

For `CC[n+]1ccc2cc(OC)c(OC)cc2c1Cc1ccc(OC)c(OC)c1`, the half-maximal activity concentration (AC50) by setting is: under setting [2], 0.58 µM [rising, single point]; under setting [1], 0.92 µM [falling, single point].

On to `CCCCN(C(=O)c1cc(Cl)nc2ccccc12)c1c(N)n(Cc2ccccc2)c(=O)[nH]c1=O`, for which the cell number change is -15.2%.

As to `O=C(/C=C/c1ccc2c(c1)OCO2)c1ccccn1`, the cell number change was -20.5%. Further, the AC50 under setting [1] was 29.1 µM [falling, single point].

As for `Cc1ccc(Cl)cc1N1CCN(S(=O)(=O)c2cc3c(cc2C)NC(=O)CO3)CC1`, the cell number change worked out at 18.4%.

With `CN(CC(=O)N1CCN(Cc2ccccc2)CC1)C(=O)Cc1cccc2ccccc12`, the cell number change worked out at 2.68%. In addition, the AC50 under setting [1] is 2.31 µM [falling, partial curve].

On to `COc1ccc(Cl)cc1NC(=O)NCCN1CCCCC1`, for which the cell number change is -35.4%. The AC50 under setting [2] was 0.92 µM [falling, full curve, poor fit]. Besides, the AC50 under setting [1] is 29.1 µM [falling, single point].

Consider `CC(NS(=O)(=O)c1ccc(OCC(=O)NCc2cccnc2)cc1)c1ccccc1` (stereo not given), for which, under setting [1], the half-maximal activity concentration (AC50) was 1.84 µM [falling, full curve].

Regarding `Cc1cccc(C)c1NC(=O)N1CCC(n2cnc3ccccc32)CC1`, the cell number change is -81.4%. The AC50 under setting [2] is 3.66 µM [falling, full curve].

Take `CC(C)(C)SCCNC(=O)c1ccc(Cl)c([N+](=O)[O-])c1`: the cell number change came to 66.7%. Moreover, under setting [2], the AC50 was 18.4 µM [rising, partial curve].

For `CCOCCCNC(=O)C(NC(=O)c1ccc(=O)[nH]c1)c1ccccc1` (stereo not given), the cell number change was 18.8%. Further, under setting [1], the AC50 is 3.26 µM [rising, full curve, poor fit].

Take `CC(C)NC(=O)CSCc1cccc(Br)c1`: the cell number change was -11.4%. For the same molecule, the AC50 under setting [2] was 0.731 µM [falling, full curve, poor fit]. The AC50 under setting [1] is 3.26 µM [falling, single point].

With `Cn1c(=O)c(C(=O)NCCO)c(O)c2ccccc21`, under setting [1], the concentration at half-maximal activity (AC50) is 16.4 µM [rising, partial curve].

Turning to `Cn1cccc1Cc1nnc(SCC(=O)N2CCc3ccccc32)n1-c1ccc(F)cc1`, the cell number change was -16.2%. Besides, the AC50 under setting [1] was 0.116 µM [falling, full curve, poor fit].

For `O=C(CCN1C(=O)/C(=C/c2cccs2)SC1=S)Nc1ccc(C(=O)O)cc1`, the cell number change was 24.4%.

With `CC1(c2cc(F)ccc2F)NC(=O)N(CC(=O)Nc2cccc(S(=O)(=O)N3CCCC3)c2)C1=O` (stereo not given), the cell number change is -40.3%. Also, the AC50 under setting [2] is 0.0517 µM [falling, full curve, poor fit]. Also, the AC50 under setting [1] was 4.61 µM [falling, partial curve, poor fit].

Consider `CN(CC(=O)Nc1cccc(F)c1)C(=O)CNS(=O)(=O)c1ccc(N(C)C)c([N+](=O)[O-])c1`, for which the cell number change is -11.4%. The AC50 under setting [2] was 0.82 µM [falling, full curve, poor fit].

Regarding `Cc1cc(C(=O)COc2ccccc2C(N)=O)c(C)n1C1CC1`, under setting [1], the AC50 was 5.8 µM [rising, single point].

Consider `COc1ccc(CCNC(=O)c2cc(-c3ccc(Cl)c(Cl)c3)oc2C)cc1`, for which the cell number change is -28.6%.

Regarding `O=C(O)CC(=O)Nc1cc(Cl)ccc1O`, the cell number change is -70.9%. The AC50 under setting [2] was 4.61 µM [falling, full curve].
